# Reference: the supplement of paper PMC4807443
# Counter-ions that a name gives are not always drawn. This is one part of the list. The numbers are fractions of the control, whatever unit the source prints. Most values lie at the level of the controls, where differences are scatter.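 MIN6 is a mouse insulinoma beta-cell line that stably carries a lentiviral reporter in which the Pdx1 and Ins1 promoters each drive a nucleus-targeted fluorescent protein; cells were counted by automated imaging with a Hoechst nuclear stain. In the screen, a drug was a possible hit when its Ins1 promoter readout lay beyond two median absolute deviations from the DMSO controls while Pdx1 activity stayed near normal.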
# Tested on: MIN6
# Assay: % Pdx1+ Ins1-low (RFP-only, immature) cells relative to DMSO control (fold of DMSO control); higher = more immature Pdx1+/Ins1-low cells
# Conditions: 8.5 µM; 48 h; glucose 5 mM
row,SMILES,% Pdx1+ Ins1-low
1,CN1[C@@H]2C[C@@H](OC(=O)[C@H](CO)c3ccccc3)C[C@H]1[C@@H]1O[C@@H]12 [Scopolamine hydrochloride],1.07
2,N[C@@H]1C[C@H]1c1ccccc1 [Tranylcypromine hydrochloride],0.796
3,COc1cc(C(=O)OC2CC3CCC(C2)N3C)ccc1O (stereo not given) [Fillalbin],1.09
4,"NCC(CC(=O)O)c1ccc(Cl)cc1 (racemic) [Baclofen (R,S)]",0.861
5,CN[C@@H]1[C@@H](O)[C@@H](O[C@@H]2[C@@H](O)[C@H](O[C@H]3O[C@H](CN)CC[C@H]3N)[C@@H](N)C[C@H]2N)OC[C@]1(C)O.CN[C@@H]1[C@@H](O)[C@@H](O[C@@H]2[C@@H](O)[C@H](O[C@H]3O[C@H]([C@@H](C)N)CC[C@H]3N)[C@@H](N)C[C@H]2N)OC[C@]1(C)O.CN[C@@H]1[C@@H](O)[C@@H](O[C@@H]2[C@@H](O)[C@H](O[C@H]3O[C@H]([C@@H](C)NC)CC[C@H]3N)[C@@H](N)C[C@H]2N)OC[C@]1(C)O [Gentamicine sulfate],0.689
6,COc1ccc2c(c1O)-c1c(OC)c(OC)cc3c1[C@H](C2)N(C)CC3 [Isocorydine (+)],0.922
7,O=C1CC[C@@]2(O)[C@H]3Cc4ccc(O)c5c4[C@@]2(CCN3CC2CC2)[C@H]1O5 [Naltrexone hydrochloride dihydrate],1.24
8,CCN1C[C@]2(C)CC[C@H](O)[C@]34C1[C@@H](C[C@H]23)[C@@]1(O)C[C@H](OC)[C@H]2C[C@@H]4[C@@H]1[C@H]2O [Karakoline],1.22
9,"CN1CCC2(C)c3cc(O)ccc3N(C)C12 (single isomer, unassigned; (-)) [(-)-Eseroline fumarate salt]",0.844
10,CC(NC(C)(C)C)C(=O)c1cccc(Cl)c1 (stereo not given) [Bupropion hydrochloride],0.847
11,O=c1ccc2cc(O[C@@H]3O[C@H](CO)[C@@H](O)[C@H](O)[C@H]3O)c(O)cc2o1 [Esculin Hydrate],0.71
12,O=c1c2ccccc2[se]n1-c1ccccc1 [Ebselen],1.09
13,CC(=O)O[C@H]1C[C@@H]2CC[C@@H]3[C@H](CC[C@@]4(C)[C@H]3C[C@H]([N+]3(C)CCCCC3)[C@@H]4OC(C)=O)[C@@]2(C)C[C@@H]1[N+]1(C)CCCCC1 [Pancuronium bromide],0.673
14,COc1c2c(cc3c1OCO3)CCN(C)C2 [Hydrocotarnine hydrobromide],1
15,C=CCN1CC[C@]23c4c5ccc(O)c4O[C@H]2C(=O)CC[C@@]3(O)[C@H]1C5 [Naloxone hydrochloride],1.18

# Individual results from the results shown.
# % Pdx1+ Ins1-low, `O=c1c2ccccc2[se]n1-c1ccccc1` [Ebselen] reads 1.09
# % Pdx1+ Ins1-low, `O=c1ccc2cc(O[C@@H]3O[C@H](CO)[C@@H](O)[C@H](O)[C@H]3O)c(O)cc2o1` [Esculin Hydrate] reads 0.71
